This passage reports binding results from PMC9814157.

Protein sequences, listed by entry. Tags and fused reporters are not part of them.
UniProt Q60631: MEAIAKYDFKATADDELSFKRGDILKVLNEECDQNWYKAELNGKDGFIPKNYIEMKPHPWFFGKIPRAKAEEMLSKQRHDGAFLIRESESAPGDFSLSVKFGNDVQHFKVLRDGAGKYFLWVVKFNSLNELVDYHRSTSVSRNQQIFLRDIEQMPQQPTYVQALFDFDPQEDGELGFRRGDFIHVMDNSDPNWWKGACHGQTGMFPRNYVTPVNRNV

These are yes or no findings as the source states them, for the method shown. Binding seen in cells or lysates may run through a third protein. Some binding calls cover weakened binding; strength is not graded here.

Assay [1] concerns the target T1, integrin-linked kinase (ILK) (mouse (endogenous in splenic B cells)) (UniProt O55222).
T1 sequence: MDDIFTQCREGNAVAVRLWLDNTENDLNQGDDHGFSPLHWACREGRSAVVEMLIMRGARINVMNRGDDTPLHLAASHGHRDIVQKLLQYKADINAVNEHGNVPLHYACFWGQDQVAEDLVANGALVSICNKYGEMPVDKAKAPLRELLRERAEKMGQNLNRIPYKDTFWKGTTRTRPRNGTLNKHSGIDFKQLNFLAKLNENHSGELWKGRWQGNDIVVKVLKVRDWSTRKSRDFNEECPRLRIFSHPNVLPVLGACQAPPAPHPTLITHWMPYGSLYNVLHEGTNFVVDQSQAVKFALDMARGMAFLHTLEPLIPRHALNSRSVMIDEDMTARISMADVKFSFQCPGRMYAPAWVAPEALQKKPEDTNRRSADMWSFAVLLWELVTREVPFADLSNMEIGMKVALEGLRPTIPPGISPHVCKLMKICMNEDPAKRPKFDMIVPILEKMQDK
The assay is described as follows: co-IP; lysate of β1^KO (Itgb1^fl/fl Cd21^Cre) transitional B cells, 1 mg total protein; anti-ILK (4G9) or control IgG overnight at 4°C, Dynabeads Protein G; 20 mM Hepes pH 7.6, 2 mM MgCl2, 150 mM NaCl, 10% glycerol, 0.1% NP40; immunoblot for Grb2 and ILK.

For assay [2], the target named is T1, integrin-linked kinase (ILK) (mouse (endogenous in splenic B cells)). The assay is described as follows: condition: only in lysates of β1^WT and β1^KO Fo B cells; co-IP; lysates of β1^WT and β1^KO follicular (Fo) B cells, 1 mg total protein; anti-ILK (4G9) or control IgG overnight at 4°C, Dynabeads Protein G; 20 mM Hepes pH 7.6, 2 mM MgCl2, 150 mM NaCl, 10% glycerol, 0.1% NP40; immunoblot for Grb2 and ILK.

Assay [3] shares this target. In words: condition: only in lysate of β1^WT transitional B cells; co-IP; lysate of β1^WT (Itgb1^+/+ Cd21^Cre) transitional B cells, 1 mg total protein; anti-ILK (4G9) or control IgG overnight at 4°C, Dynabeads Protein G; 20 mM Hepes pH 7.6, 2 mM MgCl2, 150 mM NaCl, 10% glycerol, 0.1% NP40; immunoblot for Grb2 and ILK.

“adaptor protein Grb2 (from UniProt Q60631 1-217)”: the binding result in assay [1] is recorded as “binds weakly”; in assay [2], “no binding”; in assay [3], “no binding”.
